Reference: US8076294B2 (Advanced Technologies and Regenerative Medicine, LLC., priority 2007, dated 2011)

Key:
[1] = general procedure: Fmoc solid-phase peptide synthesis; Fmoc-Phe-Wang resin (0.74 mmol/g, 100-200 mesh); Fmoc-Gly-Wang resin (0.7 mmol/g, 100-200 mesh); HBTU/HOBT, DIEA; conditions: whole synthesis, scale of the general procedure 0.1 mmol
[2] = general procedure: Fmoc solid-phase peptide synthesis; Fmoc-Gly-Wang (0.7 mmol/g); HBTU/HOBT, DIEA; conditions: whole synthesis, overall, scale 0.1 mmol
[3] = general procedure: Fmoc solid-phase peptide synthesis; Fmoc-Phe-Wang resin (0.74 mmol/g); HBTU/HOBT, DIEA; conditions: whole synthesis, overall, scale 0.1 mmol

Leu-(Gly-Pro-Hyp)10-Phe
isolated yield [1]: 35%

Ac-(Gly-Pro-Hyp)10-Gly
isolated yield [2]: 34%

Gly-(Gly-Pro-Hyp)10-Gly
isolated yield [1]: 32%

(F5)-Phe-(Gly-Pro-Hyp)10-Phe
isolated yield [3]: 32%
isolated yield [1]: 31%

Phe-(Gly-Pro-Hyp)10-Phe
isolated yield [1]: 26%
